# Measured values taken from PubChem BioAssay AID540276 (National Center for Advancing Translational Sciences (NCATS), 2011).
# About 5,400 (1.8%) of roughly 300,000 compounds were called active. The inconclusive results got no clear call from the source; some entries with a clear call stand among them for comparison. Calls follow the shape of the full dose curve; tested in HEK293 cells. Potencies of inconclusive entries are doubtful fits and often do not repeat.
# Assay: qHTS for inhibitors of binding or entry into cells for Marburg Virus
# Details: Marburg virus pseudotyped entry inhibition, cell reporter; activity change, negative = inhibition: at 37.8 µM (top of the series) unless noted
# % is scaled to controls: 0 for no effect and ±100 for the full control effect; potency is read from the fitted curve at half-maximal effect.
Structure (SMILES),Potency,"activity change, negative = inhibition"
Cc1ccc2nc(/C=C/c3cccc(F)c3)ccc2c1,"inconclusive: 3.98 µM [activator, partial curve, poor fit]",
CCC(=NCc1ccccc1)c1c(C(F)(F)F)[nH]n(-c2nc3ccccc3s2)c1=O,,inactive: 11.3%
NC(=O)c1ccc(-n2nnnc2SCC(=O)NC2CCCCC2)cc1,,inactive: 9.3% [at 46.1 µM]
O=C(Nc1ccc2c(c1)oc1ccccc12)c1ccc2c(c1)OCO2,"inconclusive: 1.83 µM [activator, partial curve, poor fit]",
COC(=O)c1sccc1NC(=S)Nc1ccccc1,,inactive: 4.75%
CC(=O)Oc1ccccc1[C@@H]1OCCN1C(C)=O,,inactive: 1.93%
O=C(c1ccc2[nH]c(=O)c(=O)[nH]c2c1)N1CCN(c2ccccc2)CC1,"inconclusive: 12.6 µM [activator, partial curve, poor fit]",
CCN(C(=O)CN1c2ccccc2CC1C)c1c(N)n(Cc2ccccc2)c(=O)[nH]c1=O (centres undefined),"inconclusive: 35.5 µM [inhibitor, single point]",
O=C(N/N=C/c1c(Cl)[nH]c2ccccc12)c1sc2ccccc2c1Cl,"inconclusive: 35.5 µM [inhibitor, partial curve, poor fit]",
COc1cc(OC)cc(C(=O)NNC(=S)Nc2ccc(S(N)(=O)=O)cc2)c1,"inconclusive: 31.6 µM [inhibitor, single point]",
Cc1sc(NC(=O)c2ccc(Br)s2)c(C(N)=O)c1C,"inconclusive: 0.58 µM [activator, single point]",
Cc1cc(C)c(NC(=O)CN2C(=O)NC3(CCCCC3)C2=O)c(Cl)c1,,inactive: -20.8%
CCN(CC)CCNC(=O)c1ccc(NC(=O)/C=C/c2cc(OC)c(OC)c(OC)c2)cc1,"inconclusive: 3.16 µM [inhibitor, partial curve, poor fit]",
CCCCOc1ccccc1C1CC(=O)Nc2ccc3ccccc3c21 (centres undefined),"inconclusive: 31.6 µM [inhibitor, single point]",
COc1ccc(N(CC(=O)Nc2ccc3c(c2)OCO3)S(=O)(=O)c2ccc(F)cc2)cc1,,inactive: -7.03%
CCCCn1c(NC(=O)c2ccccc2)nc2ccccc21,"inconclusive: 29.1 µM [inhibitor, single point]",
CCCc1[nH]n(-c2ccc([N+](=O)[O-])cc2)c(=O)c1C(C)=NCc1ccncc1,"inconclusive: 11.2 µM [inhibitor, partial curve, poor fit]",
S=c1[nH]nc(-c2ccncc2)n1/N=C/C=C/c1ccccc1,"inconclusive: 7.08 µM [inhibitor, full curve, poor fit]",
O=C(Nc1ccccn1)c1ccc(-c2ccccc2)cc1,active: 1.12 µM,
O=C(NNc1cc(Cl)cc(Cl)c1)c1cccs1,"inconclusive: 35.5 µM [inhibitor, single point]",
CCN(CC(O)CON=C1c2ccccc2-c2ccccc21)S(=O)(=O)c1ccc(C)cc1 (centres undefined),"inconclusive: 11.6 µM [inhibitor, partial curve]",
O=C(NNc1ccccc1Cl)C(O)(c1cccc(C(F)(F)F)c1)c1cccc(C(F)(F)F)c1,active: 18.4 µM,

# Ten entries out of the list, ordered by heavy-atom count, smallest number first.
Structure (SMILES),Potency,"activity change, negative = inhibition"
O=C(NNc1cc(Cl)cc(Cl)c1)c1cccs1,"inconclusive: 35.5 µM [inhibitor, single point]",
O=C(Nc1ccccn1)c1ccc(-c2ccccc2)cc1,active: 1.12 µM,
CCCCn1c(NC(=O)c2ccccc2)nc2ccccc21,"inconclusive: 29.1 µM [inhibitor, single point]",
Cc1cc(C)c(NC(=O)CN2C(=O)NC3(CCCCC3)C2=O)c(Cl)c1,,inactive: -20.8%
O=C(c1ccc2[nH]c(=O)c(=O)[nH]c2c1)N1CCN(c2ccccc2)CC1,"inconclusive: 12.6 µM [activator, partial curve, poor fit]",
COc1cc(OC)cc(C(=O)NNC(=S)Nc2ccc(S(N)(=O)=O)cc2)c1,"inconclusive: 31.6 µM [inhibitor, single point]",
CCCc1[nH]n(-c2ccc([N+](=O)[O-])cc2)c(=O)c1C(C)=NCc1ccncc1,"inconclusive: 11.2 µM [inhibitor, partial curve, poor fit]",
CCC(=NCc1ccccc1)c1c(C(F)(F)F)[nH]n(-c2nc3ccccc3s2)c1=O,,inactive: 11.3%
CCN(C(=O)CN1c2ccccc2CC1C)c1c(N)n(Cc2ccccc2)c(=O)[nH]c1=O (centres undefined),"inconclusive: 35.5 µM [inhibitor, single point]",
CCN(CC)CCNC(=O)c1ccc(NC(=O)/C=C/c2cc(OC)c(OC)c(OC)c2)cc1,"inconclusive: 3.16 µM [inhibitor, partial curve, poor fit]",

# Additional records follow:

Structure (SMILES),Potency,"activity change, negative = inhibition"
Cc1ccc(O)c(C(=O)/C=C/c2ccc3c(c2)OCCCO3)c1,,inactive: -10.3%
CCCn1nnnc1NCc1ccccc1OCc1ccc(F)cc1,"inconclusive: 18.3 µM [inhibitor, single point]",
CCOC(=O)c1ccc(N2C(=O)c3n[nH]c(-c4ccco4)c3C2c2ccc(C(=O)OC)cc2)cc1 (centres undefined),"inconclusive: 17.8 µM [inhibitor, single point]",
O=C1NC2(CCCCC2)OC12CCCCC2,"inconclusive: 15.8 µM [activator, single point]",
O=C(NCCCN1CCOCC1)c1ccc(CSCc2cccc(Cl)c2)o1,"inconclusive: 2.51 µM [inhibitor, full curve, poor fit]",
COCCCNC(=O)c1sc2ncn(CC(=O)Nc3ccc(C)c(Cl)c3)c(=O)c2c1C,,inactive: -6.25% [at 46.1 µM]
O=C1CCCN1CCC(=O)N1CCCC(CO)(Cc2ccccc2)C1 (centres undefined),"inconclusive: 6.31 µM [activator, partial curve, poor fit]",
CCCCCCn1c(O)c(/C=N/N2CCCCCC2)c(=O)[nH]c1=O,,inactive: -1.95% [at 46.1 µM]
O=S(=O)(c1ccccc1)c1cnn(-c2ccccc2)c1-c1ccc(F)cc1,"inconclusive: 32.6 µM [inhibitor, single point]",
Cc1cccn2c(=O)c3cc(C(=O)NCCN4CCOCC4)c(=N)n(CCc4ccccc4)c3nc12,"inconclusive: 3.16 µM [inhibitor, partial curve, poor fit]",
Cc1cc(C)cc(OCC(=O)Nc2cccc3cccnc23)c1,,inactive: -4.35% [at 46.1 µM]
O=c1c2[nH]c3ccccc3c2ncn1C1CCCCC1,,inactive: -16.4% [at 46.1 µM]
CC(=O)Nc1ccc(NC(=O)CCCc2c[nH]c3ccccc23)cc1,"inconclusive: 25.1 µM [activator, single point]",
Cc1ccc(S(=O)(=O)N2CCN(C(=O)c3ccc(N4CCC(C)CC4)c([N+](=O)[O-])c3)CC2)cc1,"inconclusive: 14.1 µM [inhibitor, single point]",
CCN(CC)CCNC(=O)c1ccc(NC(=O)c2cn(-c3ccc(F)cc3)nc2-c2cccc(OC)c2)cc1,"inconclusive: 35.5 µM [inhibitor, single point]",
CN(C1CCCCC1)S(=O)(=O)c1ccc(S(=O)(=O)N2CCCC2)cc1,"inconclusive: 29.1 µM [inhibitor, single point]",
COc1ccccc1C(=O)OCC(=O)NCCNC(=O)COC(=O)c1ccccc1OC,"inconclusive: 35.5 µM [activator, single point]",
CCOC(=O)CSc1nc2ccccc2c(=O)[nH]1,,inactive: 0.62%
COc1ccc(CNC(=O)CCn2nc(C)c3c(C)n(-c4ccccc4)nc3c2=O)c(OC)c1,inactive,
Clc1ccc(-c2nnc(-c3ccccc3Cl)o2)cc1,"inconclusive: 5.8 µM [inhibitor, single point]",
COC(=O)c1ccc(NC(=O)CN2C(=O)c3ccccc3S2(=O)=O)cc1,,inactive: -6.49% [at 46.1 µM]
CCOC(=O)N1CCN(C(=O)CN(c2ccc(Cl)c(C(F)(F)F)c2)S(C)(=O)=O)CC1,"inconclusive: 1.3 µM [inhibitor, single point]",
